# Source: PubChem BioAssay AID743121 (NCATS, 2013)
# Purpose: 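Knock-downs that sensitise breast cancer cells to camptothecin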 (primary screen)
# Cell system: MDA-MB-231 cells, a human breast cancer line
# Reagents: single siRNA against human genes, 20 nM siRNA (0.8 pmol per well)
# Timing: 120 h (drug added 48 h after transfection, read 72 h later)
# Conditions: camptothecin 20 nM (about EC30) for 72 h; vehicle 0.1% DMSO in parallel plates
# Measured: 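CellTiter-Glo ATP signal, scaled to control siRNA as percent viability; sensitisation given as log2 of untreated divided by camptothecin-treated viability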
# Reading the numbers: log2 vehicle/camptothecin viability: higher = stronger sensitisation to camptothecin; viability with camptothecin and viability without drug: higher = more viable cells
# Rule for the call: 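Each gene scored by redundant siRNA activity (RSA) over its individual siRNA ratios; a gene is called active at p < 0.001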
# The deposit covers about 26,000 reagents; this is a random part of them. 167 of them (0.63%) count as active. 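Calls are per gene from RSA p-values that are not deposited; an individual active-marked siRNA can sensitise only weakly.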 Entries without a mark were called inactive. Reagents against one gene are numbered here.
target,reagent no.,log2 vehicle/camptothecin viability,viability with camptothecin (% of control),viability without drug (% of control)
F2R,1,-0.123,116,107
F2R,2,0.0827,57.8,61.2
F2R,3,-0.31,97.2,78.4
F2R,4,0.214,36,41.8
CPXM2,1,-0.0731,97.6,92.8
CPXM2,2,-0.24,59.8,50.6
CPXM2,3,-0.0194,108,107
CPXM2,4,-0.0147,60.3,59.6
VASP,1,0.108,36.7,39.6
VASP,2,-0.457,75.4,54.9
VASP,3,-0.284,72.5,59.6
VASP,4,0.0793,101,107
DUSP15,1,0.128,78.5,85.8
DUSP15,2,-0.128,97.8,89.4
DUSP15,3,-0.512,89.6,62.9
DUSP15,4,-0.138,69.7,63.4
HUWE1,1,-0.106,83.5,77.6
HUWE1,2,0.0656,24.5,25.7
HUWE1,3,0.203,36.5,42
ILF3,1,-0.191,53.9,47.2
ILF3,2,-0.259,73.3,61.2
ILF3,3,0.0005,27.8,27.8
ILF3,4,0.107,24.6,26.5
ABCD4,1,-0.545,68.1,46.7
ABCD4,2,-0.361,78.1,60.8
ABCD4,3,0.156,92.2,103
ABCD4,4,0.384,52.2,68.1
SAA2,1,-0.456,129,94.1
SAA2,2,0.0166,120,122
SAA2,3,-0.377,102,78.7
SAA2,4,-0.122,39.9,36.7
SAA2,5,-0.0972,41.3,38.6
SAA2,6,-0.146,70.4,63.6
ELP1,1,0.205,71.3,82.1
ELP1,2,-0.319,75.6,60.6
ELP1,3,-0.134,98.9,90.1
ELP1,4,-0.439,94.3,69.6
MAFK,1,0.00424,103,104
MAFK,2,-0.67,107,67
MAFK,3,-0.102,86.2,80.3
MAFK,4,0.517,48.6,69.5
GJA8,1,-0.0049,72.3,72
GJA8,2,-0.768,46.8,27.5
GJA8,3,-0.0879,48.3,45.5
GJA8,4,-0.523,69.9,48.6
EPHB2,1,0.084,113,120
EPHB2,2,-0.668,28.7,18
EPHB2,3,0.814,13.1,23
EPHB2,4,-0.0138,50,49.5
PIP5KL1,1,-0.361,95.1,74
PIP5KL1,2,-0.491,84.6,60.2
PIP5KL1,3,-0.51,80.3,56.4
PIP5KL1,4,-0.596,65.8,43.6
PIP5KL1,5,-0.206,95.6,82.9
PIP5KL1,6,0.0145,83.1,83.9
STX5,1,0.419,63.3,84.6
STX5,2,0.413,55.5,73.9
STX5,3,-0.239,69.9,59.2
STX5,4,-0.211,69.7,60.3
XIAP,1,0.00682,114,114
XIAP,2,0.132,107,117
XIAP,3,-0.0167,121,120
XIAP,4,-0.22,41.3,35.5
GMPR,1,-0.0429,104,101
GMPR,2,-0.368,38.5,29.8
GMPR,3,-0.161,110,98.3
GMPR,4,0.0667,100,105
REEP1,1,-0.114,92.3,85.3
REEP1,2,-0.0748,91.2,86.6
REEP1,3,-0.0376,95.8,93.4
REEP1,4,-0.032,95.5,93.4

Individual results from the entries so far:
Entry for REEP1 #2 under “viability without drug (% of control)”: 86.6
Result of GMPR #4 under “viability without drug (% of control)”: 105
Under “log2 vehicle/camptothecin viability”, PIP5KL1 #4 reads -0.596
